# Results from patent US5770201A, “HA-2 antigenic peptide” (Rijsuniversiteit Te Leiden, priority 1994, dated 1998).
# Part of at least one peptide drawing is inferred or uncertain, most often the ends. Where no end group is shown, it is not given here.
# What was measured:
# [1] = test system: T2 cell line for lysis by clone 5H17; test: 51Cr release assay: peptide sensitization of T2 for lysis by HA-2 specific CTL clone 5H17; format: cell-based, human
# [2] = test system: T2 cells for lysis by clone 5H13; test: 51Cr release assay: peptide sensitization of T2 for lysis by HA-2 specific CTL clone 5H13; format: cell-based, human
Sequence,"EC50 ([1]; T2 cell line, CTL clone 5H17, read-out: concentration inducing 50% lysis) [nM]","EC50 ([2]; T2 cells, clone printed as 5H18, read-out: 50% lysis inducing concentration) [nM]","sensitizing activity ([1]; concentration range of 50 nM to 0.5 pM, clone 5H17)","sensitizing activity ([2]; concentration range of 50 nM to 0.5 pM, clone 5H13)"
YIGSVLISV,5 to 50,5 to 50,,
YYGEVCVSV,,,No activity,No activity
